Test results from US20230150951A1, “2,5- OR 2,6-DISUBSTITUTED HYDROQUINONE DERIVATIVES WITH AT LEAST ONE CARBOXY, SULFO OR AMIDO GROUP USEFUL AS MEDICAMENTS” (OM PHARMA SA, priority 2020, published 2023).
For some assays here: At least one structure is not confirmed: it was looked up by name or label, or the drawing left a doubt. Some results were stated once for a whole list of compounds, not compound by compound.

Protein sequences, listed by entry. Tags and fused reporters are not part of them. Residues count along the entry.
UniProt P09038, 134-288: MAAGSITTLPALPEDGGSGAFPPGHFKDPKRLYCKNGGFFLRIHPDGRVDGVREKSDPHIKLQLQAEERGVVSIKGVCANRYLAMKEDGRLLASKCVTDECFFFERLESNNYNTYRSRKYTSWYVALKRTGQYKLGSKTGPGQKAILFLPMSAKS
UniProt P05230, whole entry: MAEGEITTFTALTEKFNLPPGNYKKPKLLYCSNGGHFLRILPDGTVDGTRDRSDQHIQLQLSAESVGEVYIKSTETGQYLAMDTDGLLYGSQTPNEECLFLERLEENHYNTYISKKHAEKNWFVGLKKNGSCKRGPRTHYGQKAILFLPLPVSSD

Experiments:
[1] = Stability of free acids and salts as solids; type: physicochemical; details: 4° C., 20° C. and 40° C.
VEGF-A = molecular target: T1, VEGF-A (Homo sapiens, UniProt P15692); experiment: VEGF-A induced sprouting of HUVEC, spheroid-based cellular angiogenesis assay; type: cell-based; details: for IC50: HUVEC spheroid sprouting, VEGF-A 25 ng/mL preincubated with compound, 24 h, read-out: VEGF-A1 IC50
T1 construct: purchased ProQinase GmbH
T1 sequence (P15692 27-191 isoform P15692-4): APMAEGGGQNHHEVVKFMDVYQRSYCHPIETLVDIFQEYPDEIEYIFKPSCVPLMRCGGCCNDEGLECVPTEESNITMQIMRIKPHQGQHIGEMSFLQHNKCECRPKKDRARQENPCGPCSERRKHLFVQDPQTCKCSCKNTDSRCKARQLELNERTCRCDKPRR
Protocol: (§1) Aim of this in vitro method is to assess compounds effects on FGF-2, FGF-1, or VEGF-A induced sprouting of human umbilical vein endothelial cells (HUVEC) in the spheroid-based cellular angiogenesis assay. Before adding the growth factors to the cells, they were preincubated with the compound. Sunitinib was tested as a control (without preincubation).
(§2) IC50 values determined for the tested compounds are expressed in microM [μM] and the values for the inhibition of FGF-1, FGF2 and VEGF-A induced growth (sprouting) are listed after each compound in the examples after chemical characterization.
(§3) Sprouting test was performed on the compounds dissolved in DMSO to reach 100-fold concentrated stock solutions and dissolved in culture media. Sunitinib as reference compound was provided by ProQinase GmbH. Growth factors were purchased from rhFGF-basic (FGF-2), Peprotech, New Jersey, USA, #100-18C, Lot #0415571; rhFGF-acidic (FGF-1), Peprotech, New Jersey, USA, #100-17A, Lot #031207; hVEGF-A165 (ProQinase GmbH, Freiburg, Germany; 05.02.2010) were used for stimulation of HUVEC cells growth.
(§4) Test system: Endothelial cells from human umbilical vein (HUVEC) from pooled donors were stored frozen with 70% medium, 20% FCS, 10% DMSO at about 1×10^6 cells/ampoule. HUVEC cells, primary human umbilical vein endothelial cells (PromoCell, Heidelberg, Germany), were used after passage 3 to 4. Morphology of the cells are adherent, cobblestone-like growing as monolayer and were cultured in endothelial cell growth and basal medium (ECGM/ECBM, PromoCell). The subculture was split 1:3; every 3-5 days, seed out at ca. 1×10^4 cells/cm^2 and incubated at 37° C. with 5% CO2 with a doubling time 24-48 hours […]
(§5) Quantification of growth factor inhibition: sprouting intensity of HUVEC spheroids treated with the growth factor and the inhibitors were quantitated by an image analysis system determining the cumulative sprout length per spheroid (CSL).

FGF-2 = molecular target: T2, FGF-2 (Homo sapiens, UniProt P09038); experiment: FGF-2 induced sprouting of HUVEC, spheroid-based cellular angiogenesis assay; type: cell-based; details: for IC50: HUVEC spheroid sprouting, FGF-2 25 ng/mL preincubated with compound, 24 h
T2 construct: purchased Peprotech 100-18C
Protocol: as §1, §2, §3, §4, §5

FGF-1 = molecular target: T3, FGF-1 (Homo sapiens, UniProt P05230); experiment: FGF-1 induced sprouting of HUVEC, spheroid-based cellular angiogenesis assay; type: cell-based
T3 construct: purchased Peprotech 100-17A
Protocol: as §1, §2
as §3, with “growth. […]” for “growth.”
as §5

Row | SMILES | Time stable as solids [1] | IC50 (VEGF-A) | IC50 (FGF-2) | further results
1 | O=C(O)c1cc(NC(=O)c2cc(O)c(C(=O)Nc3ccc(O)c(C(=O)O)c3)cc2O)ccc1O [Ic-007a, 5-(4-(3-carboxy-4-hydroxyphenylaminocarbonyl)-2,5-dihydroxybenzamido)-2-hydroxy benzoic acid] | up to 56 d |  |  | 
2 | CCOC(=O)c1cc(O)c(-c2nc3c(C(=O)OC)cccc3[nH]2)cc1O [Id-030a-E2] |  | ≥ 200 µM | ≥ 200 µM | 
3 | CCN(CC)CCNC(=O)c1c(C)[nH]c(/C=C2\C(=O)Nc3ccc(F)cc32)c1C [Sunitinib, reference compound] |  |  |  | Inhibition of FGF-1 induced HUVEC sprouting (in words) (FGF-1; control, without preincubation): inhibited; Inhibition of VEGF-A induced HUVEC sprouting (in words) (VEGF-A; control, without preincubation): inhibited; Inhibition of FGF-2 induced HUVEC sprouting (in words) (FGF-2; control, without preincubation): inhibited
4 | CCOC(=O)c1cc(O)c(CN(Cc2cc(O)c(C(=O)OCC)cc2O)Cc2cc(O)c(C(=O)OCC)cc2O)cc1O [IIIc-061a-E3] |  | ≥ 200 µM | ≥ 200 µM | IC50 (FGF-1; HUVEC spheroid sprouting, FGF-1 25 ng/mL preincubated with compound, 24 h): ≥ 200 µM
5 | O=C(O)c1cc(NC(=O)c2cc(O)cc(C(=O)Nc3ccc(O)c(C(=O)O)c3)c2O)ccc1O [IIc-007a, 5-(3-(3-carboxy-4-hydroxyphenylaminocarbonyl)-2,5-dihydroxybenzamido)-2-hydroxy benzoic acid] | up to 56 d |  |  | 
6 | O=C(O)c1cc(O)c(CN(Cc2cc(O)c(C(=O)O)cc2O)Cc2cc(O)c(C(=O)O)cc2O)cc1O [IIIc-061a, Tris(4-carboxy-2,5-dihydroxyphenylmethyl)amine] | up to 56 d |  |  | 
